Results published in article PMC6376957.
No constants are given. Whether binding was seen depends on the method and setting. Binding calls can cover weak binding; strength is not graded here. For some of these results: Binding seen in cells or lysates may run through a third protein. For some of these results: Sequences can lack the tags named with a protein.

Chains of the proteins cited; added tags and fusions are not shown.
UniProt P05804: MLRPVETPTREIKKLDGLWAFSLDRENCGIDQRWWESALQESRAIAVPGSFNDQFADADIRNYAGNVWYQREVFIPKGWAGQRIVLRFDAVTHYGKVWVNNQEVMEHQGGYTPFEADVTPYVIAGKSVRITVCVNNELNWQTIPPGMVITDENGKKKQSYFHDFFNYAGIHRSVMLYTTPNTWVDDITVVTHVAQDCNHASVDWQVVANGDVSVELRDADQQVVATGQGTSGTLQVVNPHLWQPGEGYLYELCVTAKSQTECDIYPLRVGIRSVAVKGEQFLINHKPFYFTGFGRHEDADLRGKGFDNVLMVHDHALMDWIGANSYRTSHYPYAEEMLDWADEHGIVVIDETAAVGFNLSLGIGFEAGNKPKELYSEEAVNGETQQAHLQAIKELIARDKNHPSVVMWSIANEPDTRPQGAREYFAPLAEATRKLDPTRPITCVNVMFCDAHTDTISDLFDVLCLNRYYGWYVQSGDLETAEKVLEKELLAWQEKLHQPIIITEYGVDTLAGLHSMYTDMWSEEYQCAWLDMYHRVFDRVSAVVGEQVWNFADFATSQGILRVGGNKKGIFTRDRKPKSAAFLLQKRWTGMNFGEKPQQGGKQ

B1: GF14c fused to cYFP (BiFC) (protein, UniProt Q6ZKC0 1-256)
chain: MSREENVYMAKLAEQAERYEEMVEYMEKVAKTVDVEELTVEERNLLSVAYKNVIGARRASWRIVSSIEQKEEGRGNEEHVTLIKEYRGKIEAELSKICDGILKLLDSHLVPSSTAAESKVFYLKMKGDYHRYLAEFKTGAERKEAAESTMVAYKAAQDIALADLAPTHPIRLGLALNFSVFYYEILNSPDKACNLAKQAFDEAISELDTLGEESYKDSTLIMQLLRDNLTLWTSDLTEDGGDEVKEASKGDACEGQ
B2: GF14a (two-hybrid prey in pGADT7) (protein, UniProt Q84J55 1-264)
chain: MAAAAGGGTREEMVYMAKLAEQAERYEEMVEFMEKVVTAAAAGGGGELTVEERNLLSVAYKNVIGARRASWRIVSSIEQKEEGRGAAGHAAAARSYRARVEAELSNICAGILRLLDERLVPAAAAVDAKVFYLKMKGDYHRYLAEFKTGAERKDAADATLAAYQAAQDIAMKELSPTHPIRLGLALNFSVFYYEILNSPDRACTLAKQAFDEAISELDTLGEESYKDSTLIMQLLRDNLTLWTSDMQDDGGDEMRDATKPEDEH
B3: GF14c (two-hybrid prey in pGADT7) (protein, UniProt Q6ZKC0 1-256)
chain: MSREENVYMAKLAEQAERYEEMVEYMEKVAKTVDVEELTVEERNLLSVAYKNVIGARRASWRIVSSIEQKEEGRGNEEHVTLIKEYRGKIEAELSKICDGILKLLDSHLVPSSTAAESKVFYLKMKGDYHRYLAEFKTGAERKEAAESTMVAYKAAQDIALADLAPTHPIRLGLALNFSVFYYEILNSPDKACNLAKQAFDEAISELDTLGEESYKDSTLIMQLLRDNLTLWTSDLTEDGGDEVKEASKGDACEGQ
B4: GF14d (two-hybrid prey in pGADT7) (protein, UniProt Q2R2W2 1-265)
chain: MSPAEPTREESVYKAKLAEQAERYEEMVEYMERVARAAGGASGGEELTVEERNLLSVAYKNVIGARRASWRIISSIEQKEEGRGNDAHAATIRSYRGKIEAELARICDGILALLDSHLVPSAGAAESKVFYLKMKGDYHRYLAEFKSGDERKQAAESTMNAYKAAQDIALADLAPTHPIRLGLALNFSVFYYEILNSPDRACNLAKQAFDEAISELDSLGEESYKDSTLIMQLLRDNLTLWTSDANDDGGDEIKEAAAPKEPGDQ

Columns and labels:
[1] = target: OsFTL10 (two-hybrid bait in pGBKT7) (rice (Oryza sativa)); test: two-hybrid; Matchmaker Gold Yeast Two-Hybrid System; OsFTL10 in pGBKT7 as bait, 14-3-3s in pGADT7 as prey
[2] = target: OsFTL10 fused to nYFP (BiFC) (rice (Oryza sativa)); test: split reporter; BiFC in rice protoplasts: GF14c in p35S::cYFP, OsFTL10 in p35S::nYFP; live cell imaging by confocal microscope; GUS in place of either partner as negative control

| Molecule | binding [1] | binding [2] |
| --- | --- | --- |
| GF14e (two-hybrid prey in pGADT7) (from UniProt Q6EUP4 1-262) | binds |  |
| GUS fused to cYFP (BiFC negative control, in place of GF14c) (from UniProt P05804 1-603) (enzyme) |  | no binding |
| GF14b (two-hybrid prey in pGADT7) (from UniProt Q7XTE8 1-262) | binds |  |
| B1 |  | binds |
| B2 | binds |  |
| B3 | binds |  |
| B4 | binds |  |
